Results are given in words; binding and its absence hold for the method and conditions named.

Among the data in PMC9935906, “Network of hotspot interactions cluster tau amyloid folds” (Nature Communications, 2023) are binding values, retold here.

One assay concerns the target VQAVYK peptide (human). Briefly: ThT fluorescence aggregation assay + TEM; peptide alone, 200 µM in 1X PBS + 25 µM ThT, 37 °C, one week, endpoint ThT; fibrils checked by negative-stain TEM; self-assembly into fibrils; both purified.
The target in a further assay is VQIAYK peptide (human). The description is as above.

For VQAVYK [VQAVYK peptide], the binding result with VQAVYK peptide (human) was “no binding (tested: 200 µM)”.

As to VQIAYK [VQIAYK peptide], the binding entry with VQIAYK peptide (human) is recorded as “no binding (tested: 200 µM)”.
